# Experimental data as given in the supplement of paper PMC6411743.
# Chains of the proteins cited; added tags and fusions are not shown. Lines headed by an entry give the natural chain unless they say otherwise; changes in a name come on top.
# UniProt O95716: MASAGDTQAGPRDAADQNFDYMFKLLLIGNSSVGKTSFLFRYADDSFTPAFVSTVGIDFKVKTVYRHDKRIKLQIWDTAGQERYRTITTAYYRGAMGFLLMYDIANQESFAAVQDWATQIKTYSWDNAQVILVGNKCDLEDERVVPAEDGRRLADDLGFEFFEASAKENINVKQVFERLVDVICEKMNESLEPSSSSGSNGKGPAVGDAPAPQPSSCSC
# UniProt O95551: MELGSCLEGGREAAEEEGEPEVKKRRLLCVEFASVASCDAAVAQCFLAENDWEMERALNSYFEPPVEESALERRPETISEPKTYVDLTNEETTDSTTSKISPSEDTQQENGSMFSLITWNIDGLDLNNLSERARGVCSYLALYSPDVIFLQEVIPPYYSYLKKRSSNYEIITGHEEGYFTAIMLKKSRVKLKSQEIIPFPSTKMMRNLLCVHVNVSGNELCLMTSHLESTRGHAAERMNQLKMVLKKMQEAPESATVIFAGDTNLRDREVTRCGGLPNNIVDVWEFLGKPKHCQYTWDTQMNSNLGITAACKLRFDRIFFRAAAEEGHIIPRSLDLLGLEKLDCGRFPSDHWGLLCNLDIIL
# UniProt O75746: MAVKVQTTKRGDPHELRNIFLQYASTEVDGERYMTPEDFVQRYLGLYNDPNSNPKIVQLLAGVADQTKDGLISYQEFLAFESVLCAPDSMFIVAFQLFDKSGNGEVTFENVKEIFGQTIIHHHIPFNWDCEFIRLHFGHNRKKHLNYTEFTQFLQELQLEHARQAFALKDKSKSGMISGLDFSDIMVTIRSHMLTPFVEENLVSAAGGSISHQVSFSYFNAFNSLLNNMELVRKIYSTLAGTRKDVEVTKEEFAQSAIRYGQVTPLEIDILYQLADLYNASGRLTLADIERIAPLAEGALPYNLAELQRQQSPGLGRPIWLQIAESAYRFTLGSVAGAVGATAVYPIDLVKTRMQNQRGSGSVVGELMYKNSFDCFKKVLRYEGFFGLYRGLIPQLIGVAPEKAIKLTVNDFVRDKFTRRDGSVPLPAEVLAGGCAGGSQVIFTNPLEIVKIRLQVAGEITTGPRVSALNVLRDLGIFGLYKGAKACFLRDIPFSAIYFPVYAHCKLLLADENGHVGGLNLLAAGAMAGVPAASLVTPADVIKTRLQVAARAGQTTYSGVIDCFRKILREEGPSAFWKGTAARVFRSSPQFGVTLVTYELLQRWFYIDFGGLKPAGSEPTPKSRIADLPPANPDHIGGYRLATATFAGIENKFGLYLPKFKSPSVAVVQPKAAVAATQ
# UniProt O95602, whole entry: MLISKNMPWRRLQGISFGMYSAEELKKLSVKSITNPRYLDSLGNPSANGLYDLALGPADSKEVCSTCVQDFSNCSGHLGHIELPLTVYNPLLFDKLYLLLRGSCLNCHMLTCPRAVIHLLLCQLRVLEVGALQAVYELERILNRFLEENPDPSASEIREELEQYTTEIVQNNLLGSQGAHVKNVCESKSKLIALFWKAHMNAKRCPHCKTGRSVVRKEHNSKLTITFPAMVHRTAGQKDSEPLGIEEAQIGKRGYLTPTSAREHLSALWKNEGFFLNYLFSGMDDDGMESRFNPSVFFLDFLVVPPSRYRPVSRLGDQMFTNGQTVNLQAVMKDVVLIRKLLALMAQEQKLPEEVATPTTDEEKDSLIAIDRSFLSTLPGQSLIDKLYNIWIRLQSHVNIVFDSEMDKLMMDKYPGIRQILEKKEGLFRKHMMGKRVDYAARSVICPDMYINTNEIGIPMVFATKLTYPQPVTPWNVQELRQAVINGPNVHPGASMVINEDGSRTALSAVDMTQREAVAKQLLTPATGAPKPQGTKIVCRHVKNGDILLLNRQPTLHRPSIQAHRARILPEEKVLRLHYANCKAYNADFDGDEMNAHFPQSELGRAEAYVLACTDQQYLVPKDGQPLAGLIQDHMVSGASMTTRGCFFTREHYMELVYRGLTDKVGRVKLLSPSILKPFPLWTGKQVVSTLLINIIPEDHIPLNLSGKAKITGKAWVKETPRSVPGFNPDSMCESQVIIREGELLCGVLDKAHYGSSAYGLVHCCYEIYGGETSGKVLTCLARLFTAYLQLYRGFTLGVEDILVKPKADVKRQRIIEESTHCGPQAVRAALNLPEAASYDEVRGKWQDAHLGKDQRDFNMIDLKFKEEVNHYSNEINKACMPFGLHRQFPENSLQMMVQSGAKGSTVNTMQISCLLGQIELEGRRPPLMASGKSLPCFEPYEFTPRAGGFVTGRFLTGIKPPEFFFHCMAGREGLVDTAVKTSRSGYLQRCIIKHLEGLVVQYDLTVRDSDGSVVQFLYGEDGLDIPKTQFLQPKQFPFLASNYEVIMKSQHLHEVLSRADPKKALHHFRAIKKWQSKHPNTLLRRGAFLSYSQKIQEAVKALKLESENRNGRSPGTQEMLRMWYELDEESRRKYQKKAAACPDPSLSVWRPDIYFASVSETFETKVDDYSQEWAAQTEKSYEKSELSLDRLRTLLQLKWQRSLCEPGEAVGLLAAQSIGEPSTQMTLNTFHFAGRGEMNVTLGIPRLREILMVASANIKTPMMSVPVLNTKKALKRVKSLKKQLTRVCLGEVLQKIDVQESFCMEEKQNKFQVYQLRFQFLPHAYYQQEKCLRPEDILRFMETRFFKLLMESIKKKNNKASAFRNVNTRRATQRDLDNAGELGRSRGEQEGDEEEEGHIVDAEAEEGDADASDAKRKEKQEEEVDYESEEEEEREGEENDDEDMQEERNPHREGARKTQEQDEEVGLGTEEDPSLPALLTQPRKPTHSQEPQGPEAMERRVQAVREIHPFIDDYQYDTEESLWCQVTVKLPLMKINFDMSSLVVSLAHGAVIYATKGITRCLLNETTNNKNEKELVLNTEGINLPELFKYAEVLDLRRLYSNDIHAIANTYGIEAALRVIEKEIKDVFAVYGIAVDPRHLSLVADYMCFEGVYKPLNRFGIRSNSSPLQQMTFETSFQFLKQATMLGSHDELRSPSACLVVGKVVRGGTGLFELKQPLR
# UniProt O75533, whole entry: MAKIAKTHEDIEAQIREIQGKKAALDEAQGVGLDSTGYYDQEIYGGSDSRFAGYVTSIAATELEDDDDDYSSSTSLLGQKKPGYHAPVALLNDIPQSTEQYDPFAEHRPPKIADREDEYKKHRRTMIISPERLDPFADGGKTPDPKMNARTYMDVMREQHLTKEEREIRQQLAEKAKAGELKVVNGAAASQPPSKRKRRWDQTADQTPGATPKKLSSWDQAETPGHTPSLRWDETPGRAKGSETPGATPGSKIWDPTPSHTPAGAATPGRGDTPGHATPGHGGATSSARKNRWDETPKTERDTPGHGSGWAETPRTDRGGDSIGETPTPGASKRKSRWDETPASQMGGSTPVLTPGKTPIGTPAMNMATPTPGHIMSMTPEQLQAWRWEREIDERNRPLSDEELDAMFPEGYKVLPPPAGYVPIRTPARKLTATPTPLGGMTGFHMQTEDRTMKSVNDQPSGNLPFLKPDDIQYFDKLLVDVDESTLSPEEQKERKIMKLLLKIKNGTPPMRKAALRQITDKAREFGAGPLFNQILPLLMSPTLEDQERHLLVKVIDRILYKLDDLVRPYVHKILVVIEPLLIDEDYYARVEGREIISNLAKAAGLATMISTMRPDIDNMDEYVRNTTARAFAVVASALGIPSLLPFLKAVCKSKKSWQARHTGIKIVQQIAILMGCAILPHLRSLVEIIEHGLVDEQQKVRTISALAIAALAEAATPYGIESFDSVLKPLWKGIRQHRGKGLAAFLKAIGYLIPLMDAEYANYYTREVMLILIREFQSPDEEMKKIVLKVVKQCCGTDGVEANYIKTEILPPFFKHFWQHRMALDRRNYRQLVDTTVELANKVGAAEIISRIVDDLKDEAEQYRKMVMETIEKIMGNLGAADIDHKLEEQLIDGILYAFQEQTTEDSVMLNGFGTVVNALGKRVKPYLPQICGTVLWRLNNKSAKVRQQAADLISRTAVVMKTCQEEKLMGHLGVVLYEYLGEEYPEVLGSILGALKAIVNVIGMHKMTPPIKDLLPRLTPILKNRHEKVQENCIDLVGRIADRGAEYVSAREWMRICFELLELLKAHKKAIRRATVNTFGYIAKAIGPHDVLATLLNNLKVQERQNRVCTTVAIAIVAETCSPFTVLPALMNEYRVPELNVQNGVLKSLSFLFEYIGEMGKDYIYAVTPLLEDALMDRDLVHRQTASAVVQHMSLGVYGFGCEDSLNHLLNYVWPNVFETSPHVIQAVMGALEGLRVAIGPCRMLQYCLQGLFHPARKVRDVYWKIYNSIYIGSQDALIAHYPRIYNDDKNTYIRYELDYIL
# UniProt O75531: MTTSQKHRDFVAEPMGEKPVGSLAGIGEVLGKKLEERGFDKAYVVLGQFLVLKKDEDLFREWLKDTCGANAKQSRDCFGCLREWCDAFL
# UniProt O75306, whole entry: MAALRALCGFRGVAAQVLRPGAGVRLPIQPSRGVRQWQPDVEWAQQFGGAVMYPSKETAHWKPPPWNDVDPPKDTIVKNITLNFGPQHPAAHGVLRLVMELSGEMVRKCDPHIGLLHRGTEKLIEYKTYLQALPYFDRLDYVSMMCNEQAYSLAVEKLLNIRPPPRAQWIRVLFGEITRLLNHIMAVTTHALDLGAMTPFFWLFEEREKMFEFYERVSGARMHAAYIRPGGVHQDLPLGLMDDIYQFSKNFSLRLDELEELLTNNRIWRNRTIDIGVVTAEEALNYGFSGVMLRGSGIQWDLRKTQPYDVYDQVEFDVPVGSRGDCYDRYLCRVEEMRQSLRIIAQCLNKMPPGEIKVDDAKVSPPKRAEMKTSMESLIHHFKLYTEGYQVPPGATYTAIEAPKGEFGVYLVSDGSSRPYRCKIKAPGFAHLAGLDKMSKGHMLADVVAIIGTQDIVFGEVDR
# UniProt O75410: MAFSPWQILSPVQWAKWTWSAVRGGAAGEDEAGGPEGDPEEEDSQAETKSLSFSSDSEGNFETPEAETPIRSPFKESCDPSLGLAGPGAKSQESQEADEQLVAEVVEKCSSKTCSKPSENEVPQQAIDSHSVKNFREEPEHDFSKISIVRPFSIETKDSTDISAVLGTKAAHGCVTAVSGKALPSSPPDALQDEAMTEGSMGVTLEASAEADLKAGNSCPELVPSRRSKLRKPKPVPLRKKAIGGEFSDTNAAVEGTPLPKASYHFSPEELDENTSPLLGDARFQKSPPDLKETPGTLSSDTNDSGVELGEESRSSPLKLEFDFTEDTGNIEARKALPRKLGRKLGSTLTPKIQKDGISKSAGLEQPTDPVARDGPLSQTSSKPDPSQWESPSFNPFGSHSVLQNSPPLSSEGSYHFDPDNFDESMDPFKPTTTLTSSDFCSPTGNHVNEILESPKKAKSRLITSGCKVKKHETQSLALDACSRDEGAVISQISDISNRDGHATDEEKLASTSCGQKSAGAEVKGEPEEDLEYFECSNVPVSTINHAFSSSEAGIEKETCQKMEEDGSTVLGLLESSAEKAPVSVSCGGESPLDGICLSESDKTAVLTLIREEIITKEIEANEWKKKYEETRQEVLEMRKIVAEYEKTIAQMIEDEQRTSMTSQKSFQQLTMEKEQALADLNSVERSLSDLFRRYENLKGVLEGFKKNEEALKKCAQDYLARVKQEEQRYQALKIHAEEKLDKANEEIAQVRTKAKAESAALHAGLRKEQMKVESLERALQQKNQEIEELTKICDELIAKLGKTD
# UniProt O75828: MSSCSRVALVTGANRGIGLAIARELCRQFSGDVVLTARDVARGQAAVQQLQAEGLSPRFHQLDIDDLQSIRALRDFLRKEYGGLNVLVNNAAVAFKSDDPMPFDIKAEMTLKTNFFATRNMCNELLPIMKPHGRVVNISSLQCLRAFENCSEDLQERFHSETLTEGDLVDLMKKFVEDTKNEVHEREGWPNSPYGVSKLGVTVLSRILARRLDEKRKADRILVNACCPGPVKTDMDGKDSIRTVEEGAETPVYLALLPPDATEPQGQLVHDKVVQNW
# UniProt P05141: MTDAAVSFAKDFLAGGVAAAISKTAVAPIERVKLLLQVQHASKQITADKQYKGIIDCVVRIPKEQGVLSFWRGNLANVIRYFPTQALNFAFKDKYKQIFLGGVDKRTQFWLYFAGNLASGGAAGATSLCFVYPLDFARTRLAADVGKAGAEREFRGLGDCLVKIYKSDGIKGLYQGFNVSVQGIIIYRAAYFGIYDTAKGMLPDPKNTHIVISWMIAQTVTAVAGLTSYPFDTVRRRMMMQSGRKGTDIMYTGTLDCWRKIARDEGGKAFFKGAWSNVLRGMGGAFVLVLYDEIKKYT
# UniProt O75368: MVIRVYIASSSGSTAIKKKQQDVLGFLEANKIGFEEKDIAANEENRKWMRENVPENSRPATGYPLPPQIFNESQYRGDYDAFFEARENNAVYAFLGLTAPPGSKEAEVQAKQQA
# UniProt O60927: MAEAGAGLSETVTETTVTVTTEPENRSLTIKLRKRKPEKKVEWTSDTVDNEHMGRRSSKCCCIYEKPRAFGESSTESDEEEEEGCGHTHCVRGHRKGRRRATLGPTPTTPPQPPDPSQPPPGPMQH
# ± gives the standard deviation of the averaged measurements. Some of the results follow.
# Compound: Nc1nc2c(ncn2[C@@H]2O[C@H](COP(=O)(O)OP(=O)(O)OP(=O)(O)O)[C@@H](O)[C@H]2O)c(=O)[nH]1 [guanosine triphosphate]
# Experiment: NP40-soluble protein abundance relative to vehicle (solubility fold change) (ratio); higher = more soluble protein in presence of GTP
# Summary of the method: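 Crude Jurkat lysate, prepared by Dounce homogenisation, was exposed to eight concentrations from 0.1 to 10 mM for 10 min at room temperature and then 3 min at 37 °C. Solubilisation used 0.8% NP40 with benzonase for 60 min at 4 °C, followed by ultracentrifugation and TMT labelling of the supernatant for LC-MS/MS. After vsn normalisation of intensities, each value is the fold change against the detergent-processed vehicle within each replicate, across three independent experiments.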
Target,NP40-soluble protein abundance (concentration: 0.1mM),NP40-soluble protein abundance (concentration: 0.5mM),NP40-soluble protein abundance (concentration: 1mM),NP40-soluble protein abundance (concentration: 2mM),NP40-soluble protein abundance (concentration: 4mM),NP40-soluble protein abundance (concentration: 6mM),NP40-soluble protein abundance (concentration: 8mM),NP40-soluble protein abundance (concentration: 10mM)
KATNA1 (UniProt O75449),1.05 ± 0.054,1.03 ± 0.018,1.03 ± 0.039,0.981 ± 0.041,0.969 ± 0.079,0.967 ± 0.055,1.01 ± 0.023,0.946 ± 0.02
RAB3D (UniProt O95716),1.1 ± 0.056,0.997 ± 0.084,0.9 ± 0.098,0.959 ± 0.13,0.915 ± 0.09,0.952 ± 0.052,0.854 ± 0.058,0.852 ± 0.12
KBTBD11 (UniProt O94819),1.107 ± 0.0075,1.038 ± 0.0096,0.988 ± 0.096,1.15 ± 0.02,0.958 ± 0.091,0.981 ± 0.017,1.04 ± 0.029,0.924 ± 0.044
UniProt P00519 and related entries,0.938 ± 0.057,0.946 ± 0.12,1.01 ± 0.098,1.02 ± 0.13,0.979 ± 0.1,1.01 ± 0.14,1.03 ± 0.07,1.08 ± 0.12
UniProt O95551 and related entries,0.98 ± 0.015,0.997 ± 0.026,0.948 ± 0.043,0.935 ± 0.046,0.924 ± 0.053,0.94 ± 0.052,0.899 ± 0.086,0.89 ± 0.079
UniProt O94842 and related entries,0.959 ± 0.052,0.929 ± 0.093,0.956 ± 0.023,0.962 ± 0.068,0.958 ± 0.051,1.02 ± 0.05,0.984 ± 0.039,0.997 ± 0.075
ATG7 (UniProt O95352),1 ± 0.056,1.02 ± 0.059,0.982 ± 0.053,0.969 ± 0.062,0.97 ± 0.091,0.963 ± 0.076,0.948 ± 0.037,0.951 ± 0.031
SLC25A12 (UniProt O75746),1.07 ± 0.011,1.04 ± 0.016,1.03 ± 0.058,1.03 ± 0.075,1.07 ± 0.076,1.04 ± 0.1,1.03 ± 0.063,1.01 ± 0.029
POLR1A (UniProt O95602),1.17 ± 0.12,1.2 ± 0.13,1.15 ± 0.12,1.28 ± 0.19,1.29 ± 0.15,1.27 ± 0.17,1.29 ± 0.14,1.26 ± 0.15
SF3B1 (UniProt O75533),1.05 ± 0.038,1.11 ± 0.065,1.11 ± 0.087,1.15 ± 0.11,1.17 ± 0.12,1.18 ± 0.14,1.19 ± 0.15,1.18 ± 0.12
BANF1 (UniProt O75531),1.42 ± 0.34,2.98 ± 1.1,5.2 ± 3,5.54 ± 3.3,5.21 ± 3.3,5.08 ± 3,4.35 ± 2,5.71 ± 3.2
UniProt O75306 and related entries,0.964 ± 0.054,1.08 ± 0.031,0.98 ± 0.044,1.04 ± 0.058,1.02 ± 0.16,1.05 ± 0.091,0.954 ± 0.12,0.98 ± 0.074
ZBTB11 (UniProt O95625),1.13 ± 0.069,1.1 ± 0.051,1.16 ± 0.074,1.17 ± 0.029,1.19 ± 0.027,1.19 ± 0.024,1.22 ± 0.047,1.196 ± 0.0072
UniProt P05771-2,0.994 ± 0.042,0.998 ± 0.026,0.943 ± 0.039,0.92 ± 0.072,0.904 ± 0.074,0.917 ± 0.088,0.912 ± 0.043,0.87 ± 0.077
UniProt O75410 and related entries,0.936 ± 0.039,0.916 ± 0.086,0.955 ± 0.087,0.905 ± 0.12,0.907 ± 0.092,0.884 ± 0.097,0.93 ± 0.095,0.934 ± 0.089
CPD (UniProt O75976),0.939 ± 0.052,0.937 ± 0.075,0.945 ± 0.079,0.952 ± 0.082,0.917 ± 0.061,0.933 ± 0.074,0.939 ± 0.034,0.956 ± 0.057
CBR3 (UniProt O75828),1.15 ± 0.032,1.21 ± 0.11,1.11 ± 0.029,1.06 ± 0.082,1.04 ± 0.082,0.936 ± 0.091,1.08 ± 0.22,1.09 ± 0.11
ZNF217 (UniProt O75362),1 ± 0.011,1.02 ± 0.024,1.02 ± 0.028,1.06 ± 0.042,1.03 ± 0.05,1.05 ± 0.077,1.09 ± 0.1,1.08 ± 0.13
UniProt O95628 and related entries,0.964 ± 0.028,0.909 ± 0.035,0.897 ± 0.042,0.9114 ± 0.006,0.896 ± 0.061,0.888 ± 0.014,0.879 ± 0.046,0.902 ± 0.04
SLC25A5 (UniProt P05141),1.02 ± 0.056,1.01 ± 0.078,0.993 ± 0.09,1.06 ± 0.13,1.15 ± 0.17,1.08 ± 0.19,1.07 ± 0.1,1.09 ± 0.052
UniProt O95782 and related entries,1.03 ± 0.024,1.03 ± 0.032,0.979 ± 0.049,1.02 ± 0.077,1.04 ± 0.065,1.02 ± 0.092,0.972 ± 0.029,1 ± 0.013
ZBED4 (UniProt O75132),1.02 ± 0.043,1.01 ± 0.075,1.01 ± 0.088,0.99 ± 0.018,0.981 ± 0.058,0.954 ± 0.024,0.998 ± 0.059,0.993 ± 0.015
UniProt P06127,0.938 ± 0.051,0.932 ± 0.052,0.968 ± 0.038,0.937 ± 0.049,0.939 ± 0.048,0.959 ± 0.063,0.963 ± 0.063,1.01 ± 0.042
UniProt O75530 and related entries,1.15 ± 0.091,1.2 ± 0.082,1.13 ± 0.096,1.22 ± 0.11,1.25 ± 0.12,1.29 ± 0.15,1.34 ± 0.11,1.31 ± 0.12
UniProt O75312 and related entries,0.97 ± 0.032,0.931 ± 0.058,0.966 ± 0.044,0.924 ± 0.085,0.932 ± 0.063,0.895 ± 0.062,0.919 ± 0.048,0.912 ± 0.037
SH3BGRL (UniProt O75368),0.86 ± 0.16,0.897 ± 0.17,0.866 ± 0.12,0.878 ± 0.14,0.873 ± 0.17,0.87 ± 0.12,0.884 ± 0.15,0.89 ± 0.11
TAF5L (UniProt O75529),1.22 ± 0.087,1.26 ± 0.17,1.19 ± 0.2,1.21 ± 0.12,1.28 ± 0.093,1.22 ± 0.16,1.22 ± 0.06,1.25 ± 0.11
PPP1R11 (UniProt O60927),1.07 ± 0.062,1.02 ± 0.1,1.06 ± 0.07,1.06 ± 0.061,1.05 ± 0.05,1.06 ± 0.097,1.07 ± 0.052,1.06 ± 0.092
CLPX (UniProt O76031),1.01 ± 0.039,1.01 ± 0.035,0.977 ± 0.038,0.964 ± 0.019,0.957 ± 0.043,0.953 ± 0.03,0.944 ± 0.059,0.934 ± 0.02
STAMBP (UniProt O95630),0.987 ± 0.01,0.953 ± 0.019,0.956 ± 0.062,0.884 ± 0.068,0.876 ± 0.088,0.878 ± 0.052,0.878 ± 0.083,0.802 ± 0.065

# Shown with tabs: entries from further up
Target	NP40-soluble protein abundance (concentration: 0.1mM)	NP40-soluble protein abundance (concentration: 0.5mM)	NP40-soluble protein abundance (concentration: 1mM)	NP40-soluble protein abundance (concentration: 2mM)	NP40-soluble protein abundance (concentration: 4mM)	NP40-soluble protein abundance (concentration: 6mM)	NP40-soluble protein abundance (concentration: 8mM)	NP40-soluble protein abundance (concentration: 10mM)
UniProt P05771-2	0.994 ± 0.042	0.998 ± 0.026	0.943 ± 0.039	0.92 ± 0.072	0.904 ± 0.074	0.917 ± 0.088	0.912 ± 0.043	0.87 ± 0.077
UniProt O75410 and related entries	0.936 ± 0.039	0.916 ± 0.086	0.955 ± 0.087	0.905 ± 0.12	0.907 ± 0.092	0.884 ± 0.097	0.93 ± 0.095	0.934 ± 0.089
